Results published in publication PMC7819943, “Rice protein-binding microarrays: a tool to detect cis-acting elements near promoter regions in rice”.
Some of the results follow.

Amino acid sequences for entries named in this document (tags omitted).
UniProt Q0JBA9, entry or part of it: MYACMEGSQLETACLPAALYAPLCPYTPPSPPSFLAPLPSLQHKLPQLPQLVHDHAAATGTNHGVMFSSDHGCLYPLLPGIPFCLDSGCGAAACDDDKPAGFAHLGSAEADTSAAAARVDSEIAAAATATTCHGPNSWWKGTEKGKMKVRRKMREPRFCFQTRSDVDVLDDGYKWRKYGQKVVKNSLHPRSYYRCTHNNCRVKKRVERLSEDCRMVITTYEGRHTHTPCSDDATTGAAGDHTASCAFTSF

Molecular target: OsWRKY34 (Oryza sativa, UniProt Q0JBA9 1-250)
Assay: protein-binding microarray (RPBM); PBS, 2% BSA, 51.3 ng/ul salmon testes DNA, 50 uM zinc acetate, 200 nM TF, 25 C, 1 h; high values mean tight binding
Conditions: protein: recombinant; tags: N-terminal polyhistidine and DsRed monomer fusion (pET32a); label: CyDye5-dUTP incorporated in the synthesized complementary strand; 3' TTTTT single-stranded linker to array surface; dsDNA, one strand shown
Procedure, shortened: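 Ni–NTA purification followed expression in E. coli BL21-CodonPlus of transcription factors fused N-terminally to a polyhistidine tag and DsRed. At 200 nM in PBS with 2% BSA, salmon testes DNA and 50 µM zinc acetate, the protein was incubated for 1 h at 25 °C with a custom Agilent array that had been primer-extended with Cy5-dUTP and blocked with 2% BSA. After washing, the array was read on an Axon 4000B scanner. The binding signal is per-feature fluorescence intensity in arbitrary units.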

Sequence | binding signal
CTCACAGTCGTCATCGTCGCTACCGCCGCCGCCGCCGCTGCGGAGTCACCTAGTGCAG | 8920 fluorescence intensity (a.u.)
TGTTTGTGCCGCTGGATTATGCCCCGTTAGCTTCTTTAAACGGAGTCACCTAGTGCAG | 11500 fluorescence intensity (a.u.)
GCGCCATGTGTTTTCTAGAGATCGCTCGTGTGGATGCAAGCGGAGTCACCTAGTGCAG | 9070 fluorescence intensity (a.u.)
TGGTCAAACGTTAAAACAGTCATCAGCGTCGTACATTAAACGGAGTCACCTAGTGCAG | 8110 fluorescence intensity (a.u.)
ACCACCAACCTTCGTCTCCGCCGCCTCCGCCTCTCTCCTTCGGAGTCACCTAGTGCAG | 10300 fluorescence intensity (a.u.)
TTTCTTCTGCTGGTCTTGATGGCAACATCCGACCCCTTTCCGGAGTCACCTAGTGCAG | 8250 fluorescence intensity (a.u.)
CATCTTCTTCAACCTGTGATCATCATTCAGTAGTTAAAGCCGGAGTCACCTAGTGCAG | 9170 fluorescence intensity (a.u.)
TGTATATTGCAATCCTCTGTTTTACACTTCAATTCTTATCCGGAGTCACCTAGTGCAG | 12300 fluorescence intensity (a.u.)
TATTCTCATGCCTTTGACTTTCTAAATCAACCTTTTTTTACGGAGTCACCTAGTGCAG | 10700 fluorescence intensity (a.u.)
TCCATTTCCTCCAGTTTCATTTCTAGTCTCTACCATCTGACGGAGTCACCTAGTGCAG | 13600 fluorescence intensity (a.u.)
TCGATGTCATAAAAAAAGTGTTTTTTTTCCCTTTTCTTTTCGGAGTCACCTAGTGCAG | 9760 fluorescence intensity (a.u.)
GCCGCCACCCACCCACAACCACCGCCGCCTCCGCTCCAGACGGAGTCACCTAGTGCAG | 8810 fluorescence intensity (a.u.)
ACATTACACCCTCTTCTCGTCTCTGGTCCAACCATCCGACCGGAGTCACCTAGTGCAG | 11300 fluorescence intensity (a.u.)
TCCTCCTTGCCTCCTCTTCGCCATTGTCCTAATTCCCATCCGGAGTCACCTAGTGCAG | 10500 fluorescence intensity (a.u.)
TATATGTGGCCACCGTGCTAGTTCTGGGCTGTTTAGTTGGCGGAGTCACCTAGTGCAG | 9370 fluorescence intensity (a.u.)
AATACTCTTATTTTTCTTTATCGAGATACATGCTTACGAACGGAGTCACCTAGTGCAG | 8260 fluorescence intensity (a.u.)
AGAAGTAGAGTTTGTTACCGGTGTGTGTGTGGCGTCACTCCGGAGTCACCTAGTGCAG | 12100 fluorescence intensity (a.u.)
CCCTTGACAGCACAGAGGCAACAGCAAAACACACTCTCATCGGAGTCACCTAGTGCAG | 8580 fluorescence intensity (a.u.)
GGCTGATGAATTTCTCTGGCACCGTGTCGAACAGCTTCTTCGGAGTCACCTAGTGCAG | 8470 fluorescence intensity (a.u.)
CACAAACTTTCGTTTACCCGTGTACCATTCCATCCATGTTCGGAGTCACCTAGTGCAG | 10600 fluorescence intensity (a.u.)
TCATCTCTCCTCTGCCGCCGCGCGCCGCCTTCAATCCTCCCGGAGTCACCTAGTGCAG | 8040 fluorescence intensity (a.u.)
AAAAGTCTCTCATCCTTATGTGATTCCTGAAGTTATTAATCGGAGTCACCTAGTGCAG | 8320 fluorescence intensity (a.u.)
AATCCTCTTTTTCTTTCAGACAATCAAGAGCTAACACTGTCGGAGTCACCTAGTGCAG | 8930 fluorescence intensity (a.u.)
AACTACTCTCACAATTTTTATAGTACATGCATTTTTCCTTCGGAGTCACCTAGTGCAG | 8190 fluorescence intensity (a.u.)
GGGAATATTAGTGGGATGGGGATGAGGAATTGAGGAAGAACGGAGTCACCTAGTGCAG | 13400 fluorescence intensity (a.u.)
ACATCGCACTGTACTGTCCTTGTCCCCTTCTCCAACATCACGGAGTCACCTAGTGCAG | 9030 fluorescence intensity (a.u.)
ACACAACAGCAGAACTTATGTATATGTACGTTTTCTTAAACGGAGTCACCTAGTGCAG | 8320 fluorescence intensity (a.u.)

Reprinted at random: two records from the list
Sequence | binding signal
AACTACTCTCACAATTTTTATAGTACATGCATTTTTCCTTCGGAGTCACCTAGTGCAG | 8190 fluorescence intensity (a.u.)
TTTCTTCTGCTGGTCTTGATGGCAACATCCGACCCCTTTCCGGAGTCACCTAGTGCAG | 8250 fluorescence intensity (a.u.)

(next part)

Sequence | binding signal
TAATGTATCCAAATACGTTTTCTTACTTTTCTTTCCTTTCCGGAGTCACCTAGTGCAG | 9330 fluorescence intensity (a.u.)
TGCACAGTGCAAACCATTAACCAGCGGCATTATTATTATTCGGAGTCACCTAGTGCAG | 8100 fluorescence intensity (a.u.)
CCGTCGCGTTCGCCGACTCCGGCAGCTTCATATTCCTCGTCGGAGTCACCTAGTGCAG | 8800 fluorescence intensity (a.u.)
GGGAGGTGTTGTTTTTTTTTTTTTTATCCCTTCCCATTTTCGGAGTCACCTAGTGCAG | 15300 fluorescence intensity (a.u.)
TCACTTACACCCGCTTACACCTAACTTATATATATAATTACGGAGTCACCTAGTGCAG | 8230 fluorescence intensity (a.u.)
CATGGAGGGAGGGAGGGAGGCGGAAGCGGAGGCGTGGGAGCGGAGTCACCTAGTGCAG | 9980 fluorescence intensity (a.u.)
GGGTTTCAATCATTTAGGTGGACGTCCACTCATTTATTGCCGGAGTCACCTAGTGCAG | 8640 fluorescence intensity (a.u.)
ATCGCCTTTGACCGCTGACCAAGCCAGACCAGTAGTAGTACGGAGTCACCTAGTGCAG | 8410 fluorescence intensity (a.u.)
TGTTTTATTTTTAGGATACTTCTACCTTTTTTCGCTTTGACGGAGTCACCTAGTGCAG | 9510 fluorescence intensity (a.u.)
TAGACTCTAGCCTGTTCCGCCCTCTGCTCCATGTACGGTCCGGAGTCACCTAGTGCAG | 8470 fluorescence intensity (a.u.)
GATTTTTTTTCAAACTTCTTTACGTTTAACCTAATTTATACGGAGTCACCTAGTGCAG | 8180 fluorescence intensity (a.u.)
CCAACAAACACCGCGCCTCGCCTCGTCTCCTCCGATAGCGCGGAGTCACCTAGTGCAG | 8150 fluorescence intensity (a.u.)
CTTCACGTGTAAGTTTTAAAATTTATATTGGATTTGGTCTCGGAGTCACCTAGTGCAG | 8020 fluorescence intensity (a.u.)
TGTTGCTGTTGCACATATAGTTTCTTCTTGGTCTTTCCAACGGAGTCACCTAGTGCAG | 8480 fluorescence intensity (a.u.)
GATCTATCATTCCATCTAGGCATGTCTTCGTGTATCATTCCGGAGTCACCTAGTGCAG | 9300 fluorescence intensity (a.u.)
GAGGGGAGGAAGAAGAGGTGGGTGAGAATGACACGTGGGGCGGAGTCACCTAGTGCAG | 10600 fluorescence intensity (a.u.)
ACTATCGGTACATATCTTATTGACATCATGCCTATATGACCGGAGTCACCTAGTGCAG | 10200 fluorescence intensity (a.u.)
TCTTGCGAGTTTCCTTAGCCCACTCTTCTTCTTCTTTATCCGGAGTCACCTAGTGCAG | 10700 fluorescence intensity (a.u.)
ACACGTTAAAACCCTTTTCCGGTGGCCGGTGTAACGCGCGCGGAGTCACCTAGTGCAG | 8080 fluorescence intensity (a.u.)
ATCCGTAACTCTGACAAGCTCGAGTTGCTCGTATATTTTACGGAGTCACCTAGTGCAG | 8640 fluorescence intensity (a.u.)
CACATATATATACACGATGGCGCCAAACACATTTCTCAACCGGAGTCACCTAGTGCAG | 9310 fluorescence intensity (a.u.)
ATTTTTACGTCAAACATTGTTACCATTTTTGTTTTTCCTCCGGAGTCACCTAGTGCAG | 8160 fluorescence intensity (a.u.)
TCCGTGTTTGTAATGTGTTTCCTTAAAAAAATTAATGTTCCGGAGTCACCTAGTGCAG | 8860 fluorescence intensity (a.u.)
CACATCTACGTCCTTGTCCACGCGGTGTTAAAATTTCACCCGGAGTCACCTAGTGCAG | 9830 fluorescence intensity (a.u.)
CTTTAATTTTTTTTGAATTCATTTCTTCACGTAAACATCCCGGAGTCACCTAGTGCAG | 11300 fluorescence intensity (a.u.)
GAAGCCCAATTGTGTACGTACTGCTTTTTTTGGAATGGAACGGAGTCACCTAGTGCAG | 10400 fluorescence intensity (a.u.)
GTTCTTGTTTTCTTCCTTTTTGATAATACTTCGCCATTTTCGGAGTCACCTAGTGCAG | 9260 fluorescence intensity (a.u.)
